Assay results published in patent US11312713B2, “Imidazo[4,5-C]quinoline derivatives as LRRK2 inhibitors” (Pfizer Inc., priority 2017, dated 2022).
At least one compound was matched to its structure with a doubt left.

Test: Human liver microsomes enzyme kinetics (metabolite formation)
Type: in vitro ADME
Settings: formation of metabolite 95 (from 95A) or 96B (from 96)
Description: Human Liver Microsomes Enzyme Kinetics
Incubations (in triplicate) contained 95A or 96 (1-1000 μM, final concentrations), pooled human liver microsomes (BD Biosciences, Bedford, Mass., 0.25 protein concentration, NADPH (1.3 mM), magnesium chrolide (5 mM) and potassium phosphate buffer (100 mM, pH 7.4). The final reaction volume (100 μL) contained 1 acetonitrile. The incubations were conducted at 37° C. At time points of 15 minutes for 95A, or 30 min for 96, 50 μL of incubate was quenched by the addition of 200 μL of cold acetonitrile containing 0.1% formic acid (v/v) and mass spectrometry (MS) internal standard. Quenched samples were vortexed for 1 minute followed by centrifugation at 3000 rpm for 5 minutes at room temperature (Allegra X-12R, Beckman Coulter, Fullerton, Calif.). The supernatant (150 μL) was placed into a clean injection sample block and dried down under nitrogen gas, then reconstituted with 150 μL of water containing 0.1% formic acid (v/v). The plates were capped and vortexed for 1 minute and subsequently analyzed using LC-MS/MS as described below. Formation of metabolites 95 (from substrate 95A) and 96B (from substrate 96) was quantitated using a standard curve (0.5-5000 nM) generated using a synthetic standard of substrate 95. Standard curve samples were prepared, processed, and analyzed as described above. […]

Structure (SMILES): [2H]C([2H])([2H])c1cnc(Cc2nc3cnc4ccc(Cl)cc4c3n2[C@@H]2CCO[C@H](C)C2)cn1 [Example 96, 8-chloro-2-{[5-(^2H3)methylpyrazin-2-yl]methyl}-1-[(2R,4R)-2-methyltetrahydro-2H-pyran-4-yl]-1H-imidazo[4,5-c]quinoline]
- Km: 64.9 µM
- Vmax: 0.0554 nmol/min/mg
